Experimental data published in PubChem BioAssay AID1487 (National Center for Advancing Translational Sciences (NCATS), 2009).
Values joined by “and” are separate entries in the source; they are usually repeats but may differ in a detail not shown here. Identical values can stand only once. Some of the results follow. The main result of the screen is listed elsewhere. These columns were measured beside it and carry no call. Compounds called inactive in the main read-out are mostly missing here. Words in brackets tell the shape of the fitted curve; partial curves, single points and poor fits give uncertain potencies.

Assay: qHTS Assay for Modulators of Lamin A Splicing
Conditions: HeLa LMNA splicing GFP/RFP minigene ratio, 48 h
How it was run: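 S3 HeLa cells stably expressing lamin A-EGFP splicing minigene plus DsRed2, 600 cells/well, 48 h compound exposure at 37C. Laser-scanning cytometry; analysed as GFP (500-530 nm)/RFP (575-640 nm) total intensity ratio; 0.5% DMSO vehicle.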

[1] = measured here: GFP splicing reporter channel
[2] = measured here: RFP viability control channel

Compound | AC50 [1] | AC50 [2]
COc1ccc(Oc2ncc3nc(-c4ccc(Cl)cc4)c(=O)n(C[C@H]4CCCO4)c3n2)cc1 | 11.2 µM [falling, partial curve] | –
CC1=NS(=O)(=O)c2cc(Cl)ccc2N1 | 2.24 nM [falling, full curve, poor fit] and 1.78 µM [falling, partial curve, poor fit] | 0.112 µM [rising, full curve, poor fit]
COc1cccc(NC(=O)CSc2nc(=O)[nH]c3c2CCCC3)c1 | – | 0.00316 µM [falling, full curve, poor fit]
COc1ccccc1CNCC(O)Cn1c2ccccc2c2ccccc21 (stereo not drawn) | 35.5 µM [falling, single point] | 35.5 µM [falling, single point]
Cc1ccc(-n2nnnc2SCC(=O)NCCC2=CCCCC2)c(C)c1 | – | 35.5 µM [rising, single point]
O=c1c2cccc3c2c(nn1CN1CCOCC1)-c1ccccc1-3 | 31.6 µM [rising, single point] | –
COC(=O)c1cc(OC)c(OC)cc1NCC(=O)Nc1cccc(C(F)(F)F)c1 | – | 20 µM [rising, single point]
O=C(CSc1ccc2ccccc2c1Br)Nc1cccc(S(=O)(=O)NC2=NCCCCC2)c1 | – | 22.4 µM [rising, partial curve]
O=S(=O)(N/N=C/c1cn(Cc2ccccc2)c2ccccc12)c1ccccc1 | 15.8 µM [falling, single point] | 22.4 µM [falling, single point]
CCOC(=O)N1CCN(C(=O)CSc2ccc3nnc(-c4ccccn4)n3n2)CC1 | 0.355 µM [falling, full curve, poor fit] | 0.00316 µM [falling, full curve, poor fit]
CC(=O)NC(c1ccco1)c1ccc2cccnc2c1O (stereo not drawn) | – | 11.2 µM [rising, partial curve]
Cc1ccccc1-c1nnn(CC(=O)c2ccc(S(=O)(=O)N3CCCC3)cc2)n1 | 11.2 µM [rising, partial curve, poor fit] | 11.2 µM [rising, partial curve]
COc1ccc(C2C=C(Nc3ccccc3)C(=O)N2c2ccccc2)cc1OC (stereo not drawn) | – | 0.0891 µM [rising, full curve, poor fit]
CC(O)c1n(C)c(Cl)c[n+]1C (stereo not drawn) | – | 28.2 µM [falling, single point]
CS(=O)(=O)c1cnc(-c2ccccc2)nc1-c1ccc(Cl)c(Cl)c1 | 22.4 µM [falling, single point] | 20 µM [falling, single point]
Cn1c(=O)cc(OCCCC(=O)NCc2ccco2)c2ccccc21 | – | 12.6 µM [rising, single point]
CC(C)(C)NC(=O)COC(=O)c1ccc(S(=O)(=O)N2CCCCCC2)cc1 | – | 0.178 µM [falling, full curve, poor fit]
Cc1ccc(N2CCn3c2nc2c3c(=O)n(Cc3cccc(Cl)c3)c(=O)n2C)cc1C | 0.794 µM [falling, full curve, poor fit] | 0.126 µM [falling, full curve, poor fit]
CC(C)c1ccc(NC(=O)CN2C(=O)C3(SCC(=O)N3c3ccc(F)cc3)c3ccccc32)cc1 (stereo not drawn) | 1.78 µM [rising, partial curve] | –
O=C(NCc1ccccn1)c1nc(-c2ccc(C(F)(F)F)cc2)no1 | 0.0794 µM [falling, full curve, poor fit] | –
CCCOc1ccc(CC2C(=O)Nc3ccc(Br)cc32)cc1 (stereo not drawn) | 25.1 µM [falling, single point] | 25.1 µM [falling, single point]
O=C(Cn1nnc(-c2ccccc2)n1)N/N=C/c1cccc([N+](=O)[O-])c1 | 12.6 µM [rising, single point] | 17.8 µM [rising, single point]
CC(C)CC(NC(=O)c1ccc(Cl)cc1)C(=O)OCC(=O)c1ccc2c(c1)NC(=O)CO2 (stereo not drawn) | 25.1 µM [falling, single point] | 22.4 µM [falling, partial curve]
CCN(C(=O)CSc1nc2ccccc2nc1Cc1ccccc1OC)c1ccccc1 | – | 22.4 µM [rising, partial curve]
CCOc1ccccc1CNC(=O)CCc1cn(C)c2ccccc12 | 31.6 µM [falling, partial curve, poor fit] | 0.00316 µM [falling, full curve, poor fit]
CCSC1=NC2(CCN(C(=O)NC3CCCCC3)CC2)N=C1c1ccc(OC)cc1 | 0.0112 µM [falling, full curve, poor fit] | 0.0112 µM [falling, full curve, poor fit]
Cc1sc2nc(SCC(=O)NCCOCCO)n(C)c(=O)c2c1C | 14.1 µM [rising, single point] | 15.8 µM [rising, single point]

Compound | AC50 [1] | AC50 [2]
COC(=O)c1ccc(CSc2nnc(C)n2N)o1 | 0.0251 µM [falling, full curve, poor fit] | –
O=C(Cn1cnc2ccccc21)NCc1ccccc1 | – | 31.6 µM [rising, single point]
COc1ccc(CN(C(=O)c2cc3ccccc3oc2=O)C2CCCCC2)cc1OC | – | 35.5 µM [rising, single point]
Cc1cccc(N2CCN(C(=O)CS(=O)(=O)Cc3nc(-c4ccccc4F)oc3C)CC2C)c1 (stereo not drawn) | – | 2.24 µM [rising, full curve, poor fit]
COc1ccccc1CNc1ccc2nnc(CCNC(=O)c3ccc(C)cc3)n2n1 | – | 0.00316 µM [rising, full curve, poor fit]
C[C@]1(OC(=O)/C=C\c2ccccc2)C[C@@H](O)[C@@]2(O)C=CO[C@@H](O[C@H]3O[C@@H](CO)[C@@H](O)[C@@H](O)[C@@H]3O)[C@H]21 | 14.1 µM [falling, single point] | –
CCCCOc1ccc(/C=C/C(=O)OCC(=O)N2CC(=O)Nc3ccccc32)cc1OCC | – | 10 µM [rising, single point]
Cc1ccsc1/C=N/n1c(-c2ccncc2)n[nH]c1=S | 3.98 µM [rising, partial curve, poor fit] | 28.2 µM [rising, single point]
Oc1cccc(/C=N/Nc2cc(N3CCCC3)nc(N3CCCC3)n2)c1 | – | 12.6 µM [rising, partial curve, poor fit]
Cc1ccc(NC(=O)C2CCC(CNS(=O)(=O)c3cccs3)CC2)cc1C (stereo not drawn) | – | 0.0447 µM [falling, full curve]
NS(=O)(=O)c1ccc(NS(=O)(=O)/C=C/c2ccccc2)cc1 | – | 12.6 µM [rising, single point]
CC(=O)N1CCc2ccc(S(=O)(=O)N3CC(C)OC(C)C3)cc21 (stereo not drawn) | – | 17.8 µM [rising, partial curve, poor fit]
Cc1cc(C)c(S(=O)(=O)NCC(c2ccco2)S(=O)(=O)c2ccccc2)c(C)c1 (stereo not drawn) | 0.00316 µM [rising, full curve, poor fit] | –
COC(=O)c1cc(NC(=S)NCc2ccc(Cl)cc2)cc(C(=O)OC)c1 | 12.6 µM [rising, single point] | 17.8 µM [rising, partial curve]
CCCCn1c(SCC(=O)Nc2ccc3c(c2)OCO3)nc2c1c(=O)n(C)c(=O)n2C | 3.98 µM [rising, full curve] | 11.2 µM [rising, partial curve]
Cn1cnnc1SCCOc1ccc(Cl)cc1 | – | 0.0398 µM [falling, full curve]
COc1ccccc1C(=O)O/N=C(/c1ccncc1)c1ccc([N+](=O)[O-])cc1 | 14.1 µM [rising, partial curve] | –
CCOc1ccccc1C(=O)N[C@H](C(=O)NCc1ccccc1)C(C)C | – | 2.82 µM [falling, single point]
Cc1cccc(C(=O)NC(=S)NCc2cccnc2)c1 | 4.47 µM [rising, partial curve, poor fit] | 0.2 µM [rising, full curve, poor fit]
C=CCc1c(C)nc(SC)nc1Nc1ccc(C(C)=O)cc1 | – | 11.2 µM [rising, single point]
O=C(Nc1ccc2c(c1)CCCN2C(=O)c1cccs1)c1ccccc1C(F)(F)F | 0.0224 µM [falling, full curve, poor fit] | 10 µM [rising, partial curve]
NS(=O)(=O)c1cccc(NC(=O)CSc2ncc(C(F)(F)F)cc2Cl)c1 | – | 31.6 µM [rising, single point]
Oc1c(C(c2ccccc2)N2CCc3ccccc3C2)sc2ncnn12 (stereo not drawn) | 15.8 µM [rising, partial curve, poor fit] | 11.2 µM [rising, partial curve]
COc1ccc(NC(=O)CSc2ccc(NC(C)=O)cc2)cc1S(=O)(=O)N1CCCCC1 | – | 35.5 µM [rising, single point]
NC(=O)c1nsc(C(=O)N(c2cccc(F)c2)C(C(=O)NCC2CCCO2)c2cccs2)c1N (stereo not drawn) | – | 35.5 µM [falling, single point]
CCOC(=O)c1cccc(NC(=O)CCNS(=O)(=O)c2ccc3c(c2)CCN3C(=O)CC)c1 | 12.6 µM [rising, single point] | 17.8 µM [rising, single point]
